Library screen at single concentrations

Measurements from “University of Dundee, Small-Polar-MMV Screening Library” (2021), ChEMBL document CHEMBL3988442.

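Cell assay of Leishmania donovani living inside macrophages; the read-out is not stated. Compounds at 30 µM. Direction is inferred from retests: higher values go with stronger inhibition. Of about 69,000 compounds tested this way, about 1,000 (1.5%) reached 50% or more in at least one test.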

The filed quantity is “Percent Effect” (%).
How 0% and 100% were set is not recorded. Most values in the screen are low, and negative values occur.
The compounds are a random part of those screened.
Two or more numbers in one place are separate tests of the same structure; such repeats can differ widely.

Nc1cc(N2CCC(c3cc(Cc4ccccc4)n[nH]3)CC2)ccn1 gave 96.12%. CC(C)(C)CC(NC(=O)c1nc(=O)[nH][nH]1)c1ccc(F)cc1 (stereo not given) gave 5.569%. Cc1cccc(Nc2nccnc2C2CCCN2CC(=O)N(C)C)n1 (stereo not given) read -1.402%. CCc1nnc(CNC(=O)c2cc3c(nc2OC)CCC3)s1 gave -9.784%.

Cc1ccc(CN2CCN(C3CSCCSC3)CC2CCO)o1 (stereo not given) read 35.94%. CC(NCCCN1CCCC1=O)c1cc(Br)ccc1O (stereo not given) gave 14.34%. With Cc1ccc(-c2c[nH]c([C@@H]3COCCN3Cc3cccnc3)n2)cc1 the screen gave -16.06%. With Cc1cccc(-c2nc(CNC3CCc4nc(C)nn4C3)no2)c1 (stereo not given) the screen gave 1.023%.

CCc1cnc(CN(C)C2CCN(CC(=O)Nc3nccs3)C2)o1 (stereo not given) read -6.11%. For O=C(O)C(F)(F)F.O=C(O)C(F)(F)F.[H][C@@]12COC[C@]1([H])[C@H](OCc1ccccn1)CN2Cc1nccs1 the result was 56.79%. For CCc1ncc2c(n1)CN(Cc1cc(C)on1)CC2 the result was -48.27%. [H][C@]12CCCCN1CCC[C@H]2CCC(=O)NCCc1nc(O)cc(O)n1 read 14.73%.

With O=C(NCCN1CCOCC1)c1scnc1Cl the screen gave 24.98%. For CCOC(=O)NCc1nn(CCN2CCCC2)c(=O)c2ccccc12 the result was 0.9761%. CN(C)c1ccc(CCCNC(=O)NCC(O)c2cccs2)cc1 (stereo not given) read 0.1964%. With Cc1ncsc1-c1nnc(C2CCN(Cc3ccccc3F)CC2)o1 the screen gave -2.49% & 2.986%.

For COc1ccccc1CC(=O)N1CCCC(n2nc(C)cc2C)C1 (stereo not given) the result was 10.54%. COCc1ncc(CN2CC(Oc3c(C)cccc3C)C2)cn1 gave 26.17%. CCc1nc(NC(=O)NCCc2scnc2C)nn1C gave -19.54%. With Cc1nn(C)c(C)c1CCC(=O)N1CCCC(n2cccn2)C1 (stereo not given) the screen gave -10.61%.

Result for COc1cccc(N2CCN(C(=O)c3noc4c3CCCCC4)CC2)c1 was 7.616% & 29.08%. COCC1CN(Cc2ccncc2)Cc2nn(C)cc21 (stereo not given) read 12.08%. Cc1nnc(CN(C)CC2(O)CCCN(CCC3CCCCC3)C2=O)o1 (stereo not given) gave -37.19%. Cc1c(C(C)NC(=O)Nc2ccc(F)cc2F)cnn1C (stereo not given) read 8.157%.

COc1ccccc1CC(=O)NS(=O)(=O)c1ccc(C#N)cc1 gave 22.91%. Result for N#Cc1ccc(CNC2CCN(CCc3ccncc3)CC2)cc1 was 19.38%. Result for COCC(NC(=O)c1cnc(-c2ccncc2)nc1)c1ccnn1C (stereo not given) was 16.67%. For CC1CCN(CCCNC(=O)Nc2cc3c(cc2Br)OCCO3)CC1 the result was 13.43%.

O=C(O)C(F)(F)F.[H][C@@]12CCN(Cc3ccc4c(c3)OCO4)C[C@]1(C(=O)N(C)C)CCO2 read -1.417%. With Nc1nc(CCC(=O)N2CCOC(CC3CCCCC3)C2)cs1 (stereo not given) the screen gave 8.62%. With CCN(CC1CCOC1)C(=O)Nc1ccc(N2CCCC2)nc1 (stereo not given) the screen gave 21.14%. For NC(=O)NC(=O)Cn1ccc2sccc2c1=O the result was 24.39%.

For CN(Cc1ccccc1)CC(O)Cn1cnc2sccc2c1=O (stereo not given) the result was 33.92%. Cc1cn2c(n1)CCC(NC(=O)CCOc1cccc(F)c1)C2 (stereo not given) read 14.25%. COc1cccc(CN2CCCCCC2c2cccc(C)c2)c1O (stereo not given) gave 12.53%. Result for CNC(=O)c1cnc(/C=C/c2cc(OC)c(O)c(OC)c2)s1 was 3.705%.

CO[C@H]1CN(C(C)C)C[C@@H]1NC(=O)Nc1ccc(C(F)(F)F)cc1 read 33.52%. CN1C[C@@H](n2cnc(-c3ccccc3)c2-c2ncc[nH]2)C[C@H]1C(=O)O read 36.36%. Result for CCn1cnnc1CNC(=O)NCC(C(C)C)N1CCC(C)CC1 (stereo not given) was 8.782%. Result for COc1ccc(C(CNC(=O)Nc2cc(C)nn2C)N(C)C)cc1 (stereo not given) was 19.95%.

With O=C(O)C(F)(F)F.O=C(c1ccco1)N1CCOCC2(CCN(C3CCOCC3)C2)C1 (stereo not given) the screen gave -7.781%. Result for O=C(CC1CCN(c2cccnn2)CC1)Nc1cccnc1 was 1.858%. With COc1cccc(CN2CC(=O)N(c3ccccc3C)CC2C)c1OC (stereo not given) the screen gave 2.234%. Clc1ccccc1-c1nc(CNC2CCc3ncnn3C2)cs1 (stereo not given) gave 49.04%.

N#Cc1cccc(CS(=O)(=O)NCC(O)Cc2ccccc2)c1 (stereo not given) gave 3.538%. Result for O=C(O)C(F)(F)F.[H][C@@]12CCCO[C@]1([H])[C@@H](OCC(C)C)CN2S(=O)(=O)c1cn(C)cn1 was 17.18%. Cc1cnn(CC2CCCN2C(=O)c2cccc(F)c2F)c1 (stereo not given) gave 26.82%. Result for c1ccc2oc(CCCN3CCCC(Cn4cncn4)C3)nc2c1 (stereo not given) was 8.044%.

Result for [H][C@@]12CCN(Cc3cc(C)on3)C[C@]1(C(=O)N1CCOCC1)CCO2 was 7.669%. Cn1cnc2c(-c3cccnc3)nc(C3CCN(S(C)(=O)=O)CC3)cc21 gave 18.38%. For Cc1cc(NCc2ccc(CO)cc2)n2nc(C)cc2n1 the result was -41.38%. CCC[C@@H]1CN(C(=O)c2c(F)ccc(OC)c2F)C[C@H]1C(=O)O read 7.718%.

Once more, the final 4:

compound	Percent Effect
[H][C@@]12CCN(Cc3cc(C)on3)C[C@]1(C(=O)N1CCOCC1)CCO2	7.669
Cn1cnc2c(-c3cccnc3)nc(C3CCN(S(C)(=O)=O)CC3)cc21	18.38
Cc1cc(NCc2ccc(CO)cc2)n2nc(C)cc2n1	-41.38
CCC[C@@H]1CN(C(=O)c2c(F)ccc(OC)c2F)C[C@H]1C(=O)O	7.718